Measured values as given in publication doi:10.1101/2022.07.06.498930.

Molecular target: YFP-LSM1 (Arabidopsis thaliana)
Assay: co-IP

binding: binds
B1: PAT1 (Protein Associated with Topoisomerase II), HA fusion (protein, UniProt Q0WPK4 1-793)
chain: MDAFGIGSSLNQAPVTQDLKKFGDNSTGNTMFDASQYAFFGNDVVEEVELGGLEEEDEILSFTGIAEDFSFDKEEVGDSRLLSDVDDLASTFSKLNREPDVYSNTGPITDRRSSQNSLAAEWTHGEELPNWYGRQILDSDAIKDDKVWSAQPFSSLDRVEQRIPDRTKLYPEPQRQLHQDHNQQQFSSEPILVPKSSFVSYPPPGSISPDQRLGHPNIPYQSGGPQMGSPNFSPFPNLQPQLPSMHHGSPQHTGNRPQFRPALPLNNLPPAQWMNRQNMHPGDSSGIMNNAMLQQPPHQNGLMPPQMQGSQNRLPHPMQPPLGHMPGMQPQLFNSHLSRSSSSGNYDGMLGFGDLREVRPGSGHGNRQNVRFPQQGFDAGVQRRYPFRSKYMSAGEIENILRMQLVATHSNDPYVDDYYHQACLAKKSAGAKLKHHFCPNHLRDLQQRARSNNEPHAFLQVEALGRVPFSSIRRPRPLLEVDPPNSAKFGNAEHKPTDKPLDQEPMLAARVYIEDGLCLLLEVDDIDRFLEFNQLQDGGHQLKQRRQALLQSLAVSLQLGDPLAKNGQSQSLDDFLFLRVISLPKGRKLLIRYLQLIFPGSDLMRIVCMAIFRHLRSLFGVLSSDPDIIKTTNKLATVINLCIQNMELGPVSTCLAAVSCSSEQAPLRPLGSPVGDGASTVLKSILDRASELIRANNFNNAGIALWRASFNEFFNMLMRYCISKYDSIMQSLQLPPHFATEISEEAAKAIVREMPIELLRSSFPHIDEQQKRILMEFLKRSMLGSQKTEPVLS

No constants are given. Whether binding was seen depends on the method and setting. Binding seen in cells or lysates may run through a third protein. Binding calls can cover weak binding; strength is not graded here. Where a sequence is shown, tags or fusion partners need not be part of it.
